Holding throughout (test): affinity purification with mass spectrometry; native IP-MS from unopened flower buds of FLAG-tagged transgenic plants, Col-0 as control; IP buffer 50 mM Tris-HCl pH 8.0, 150 mM NaCl, 5 mM EDTA, 10% glycerol, 0.1% Tergitol; anti-FLAG M2 magnetic beads, 4 °C, 2 h; eluted with 3xFLAG peptides
Assay [1] has as its target T1, PHD1-FLAG (Arabidopsis thaliana) (UniProt B3H578).
T1 sequence: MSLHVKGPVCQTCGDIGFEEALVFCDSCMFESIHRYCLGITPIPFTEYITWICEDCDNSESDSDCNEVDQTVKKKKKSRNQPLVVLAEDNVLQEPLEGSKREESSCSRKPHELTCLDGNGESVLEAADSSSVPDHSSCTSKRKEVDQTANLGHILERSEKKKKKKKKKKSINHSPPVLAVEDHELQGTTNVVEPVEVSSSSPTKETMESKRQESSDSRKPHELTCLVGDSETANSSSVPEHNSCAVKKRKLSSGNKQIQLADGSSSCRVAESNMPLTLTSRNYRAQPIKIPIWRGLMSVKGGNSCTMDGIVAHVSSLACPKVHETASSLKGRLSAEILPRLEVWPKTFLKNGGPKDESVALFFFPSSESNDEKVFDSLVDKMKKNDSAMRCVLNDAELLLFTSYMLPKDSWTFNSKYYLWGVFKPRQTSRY

Amino acid sequences for entries named in this document (tags omitted).
UniProt Q9M658: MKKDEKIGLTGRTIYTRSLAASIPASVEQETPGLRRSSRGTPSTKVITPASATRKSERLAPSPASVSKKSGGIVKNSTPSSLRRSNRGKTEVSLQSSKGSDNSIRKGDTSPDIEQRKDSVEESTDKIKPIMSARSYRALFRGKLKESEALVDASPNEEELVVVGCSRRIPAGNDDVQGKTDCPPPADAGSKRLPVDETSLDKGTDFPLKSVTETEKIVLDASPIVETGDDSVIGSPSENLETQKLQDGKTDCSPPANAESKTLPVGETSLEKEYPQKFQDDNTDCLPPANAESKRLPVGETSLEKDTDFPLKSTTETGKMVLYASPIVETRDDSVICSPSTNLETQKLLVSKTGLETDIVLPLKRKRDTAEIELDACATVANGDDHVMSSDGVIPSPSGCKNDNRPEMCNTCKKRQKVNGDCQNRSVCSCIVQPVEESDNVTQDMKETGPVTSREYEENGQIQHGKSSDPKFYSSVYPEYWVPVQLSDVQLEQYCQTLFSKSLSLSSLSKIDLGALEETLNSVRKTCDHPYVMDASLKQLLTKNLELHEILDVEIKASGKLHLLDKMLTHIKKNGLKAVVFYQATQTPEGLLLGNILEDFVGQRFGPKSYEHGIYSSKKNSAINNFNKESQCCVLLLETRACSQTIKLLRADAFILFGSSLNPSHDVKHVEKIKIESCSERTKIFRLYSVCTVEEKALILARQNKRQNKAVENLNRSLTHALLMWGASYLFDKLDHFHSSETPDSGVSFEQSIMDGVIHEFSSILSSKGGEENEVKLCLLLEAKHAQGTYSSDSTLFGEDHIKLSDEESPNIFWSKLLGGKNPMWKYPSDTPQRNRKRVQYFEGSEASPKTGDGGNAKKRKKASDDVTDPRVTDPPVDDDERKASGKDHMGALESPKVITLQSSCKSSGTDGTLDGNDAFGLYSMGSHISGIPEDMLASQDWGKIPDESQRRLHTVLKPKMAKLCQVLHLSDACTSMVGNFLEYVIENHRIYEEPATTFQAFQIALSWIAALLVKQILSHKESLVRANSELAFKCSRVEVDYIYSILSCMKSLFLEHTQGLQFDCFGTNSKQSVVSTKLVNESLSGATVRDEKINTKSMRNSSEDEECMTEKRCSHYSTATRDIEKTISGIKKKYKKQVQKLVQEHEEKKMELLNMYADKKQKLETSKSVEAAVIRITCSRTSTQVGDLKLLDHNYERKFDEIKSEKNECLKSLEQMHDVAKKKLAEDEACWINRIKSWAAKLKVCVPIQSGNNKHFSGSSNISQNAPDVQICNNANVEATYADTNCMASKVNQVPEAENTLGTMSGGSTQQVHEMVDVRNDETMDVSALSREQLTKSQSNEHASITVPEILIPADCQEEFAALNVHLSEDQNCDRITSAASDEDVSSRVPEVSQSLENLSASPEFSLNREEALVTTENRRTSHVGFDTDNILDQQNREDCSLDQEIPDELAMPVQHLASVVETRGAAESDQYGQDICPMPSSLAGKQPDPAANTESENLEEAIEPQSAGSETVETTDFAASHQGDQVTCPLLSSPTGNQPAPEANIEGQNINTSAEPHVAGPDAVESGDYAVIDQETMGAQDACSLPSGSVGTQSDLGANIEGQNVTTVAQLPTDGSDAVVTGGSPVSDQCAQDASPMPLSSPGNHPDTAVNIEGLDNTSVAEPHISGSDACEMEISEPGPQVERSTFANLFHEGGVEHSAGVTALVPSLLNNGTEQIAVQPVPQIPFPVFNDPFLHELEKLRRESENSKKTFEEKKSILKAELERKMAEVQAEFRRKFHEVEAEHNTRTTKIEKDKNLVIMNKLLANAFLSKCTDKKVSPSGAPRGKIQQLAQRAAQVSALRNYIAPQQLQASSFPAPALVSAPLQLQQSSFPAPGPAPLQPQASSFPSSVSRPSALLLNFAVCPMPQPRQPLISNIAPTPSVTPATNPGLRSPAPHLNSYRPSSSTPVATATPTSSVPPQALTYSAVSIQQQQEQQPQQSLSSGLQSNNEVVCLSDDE

In assay [2] the target is T2, AIPP3-FLAG (Arabidopsis thaliana) (UniProt Q8RXT5).
T2 sequence: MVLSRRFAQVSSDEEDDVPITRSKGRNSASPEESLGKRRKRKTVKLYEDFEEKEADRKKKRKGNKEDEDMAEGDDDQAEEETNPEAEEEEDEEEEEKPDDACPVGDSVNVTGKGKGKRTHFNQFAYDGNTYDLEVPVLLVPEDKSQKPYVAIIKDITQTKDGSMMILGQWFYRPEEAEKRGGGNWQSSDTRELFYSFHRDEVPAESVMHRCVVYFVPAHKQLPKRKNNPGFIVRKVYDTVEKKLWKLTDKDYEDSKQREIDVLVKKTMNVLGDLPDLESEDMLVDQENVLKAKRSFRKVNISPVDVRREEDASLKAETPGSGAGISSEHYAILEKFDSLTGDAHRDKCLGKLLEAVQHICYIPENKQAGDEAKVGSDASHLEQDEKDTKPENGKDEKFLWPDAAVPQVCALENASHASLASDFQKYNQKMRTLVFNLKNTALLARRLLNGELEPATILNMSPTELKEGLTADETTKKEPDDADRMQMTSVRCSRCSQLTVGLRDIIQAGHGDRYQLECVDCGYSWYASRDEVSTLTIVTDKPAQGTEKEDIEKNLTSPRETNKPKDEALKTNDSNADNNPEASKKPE

The target in assay [3] is T3, PIAL2-FLAG (Arabidopsis thaliana) (UniProt F4JYG0).
T3 sequence: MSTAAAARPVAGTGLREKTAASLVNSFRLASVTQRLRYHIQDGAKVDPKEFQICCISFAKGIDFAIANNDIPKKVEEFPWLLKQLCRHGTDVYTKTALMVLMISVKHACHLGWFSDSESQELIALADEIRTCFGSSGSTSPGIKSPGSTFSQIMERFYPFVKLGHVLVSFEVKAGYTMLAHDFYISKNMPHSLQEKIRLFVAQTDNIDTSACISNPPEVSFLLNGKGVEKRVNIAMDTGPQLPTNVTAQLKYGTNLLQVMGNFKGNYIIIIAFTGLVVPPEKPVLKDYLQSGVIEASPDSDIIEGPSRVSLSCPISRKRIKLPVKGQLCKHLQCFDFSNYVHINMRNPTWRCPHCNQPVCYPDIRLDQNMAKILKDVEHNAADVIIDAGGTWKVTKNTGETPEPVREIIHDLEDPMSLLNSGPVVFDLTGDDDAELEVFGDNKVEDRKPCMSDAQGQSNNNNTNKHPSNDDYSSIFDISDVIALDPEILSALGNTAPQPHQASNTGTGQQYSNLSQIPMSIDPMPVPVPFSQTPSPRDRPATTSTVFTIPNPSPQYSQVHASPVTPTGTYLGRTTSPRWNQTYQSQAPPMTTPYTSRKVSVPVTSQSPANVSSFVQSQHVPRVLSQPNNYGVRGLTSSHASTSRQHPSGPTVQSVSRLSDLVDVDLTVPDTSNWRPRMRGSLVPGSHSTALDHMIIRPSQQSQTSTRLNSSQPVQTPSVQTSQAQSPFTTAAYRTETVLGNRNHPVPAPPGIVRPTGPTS

Assay [4] concerns the target MOM2-FLAG (Arabidopsis thaliana).

No constants are given. Whether binding was seen depends on the method and setting. In cells and extracts the contact can be indirect. These calls come from enrichment with a bait or labelling near it, and not all partners need be listed. For some assays here: No binding means not detected with the bait. For some assays here: Where a sequence is shown, tags or fusion partners need not be part of it.

As to MOM2, endogenous, the binding entry in assay [1], in assay [2] and in assay [3] was “binds” each time.
In the case of “MOM1 (MORPHEUS' MOLECULE1), endogenous (from UniProt Q9M658 1-2001)”, the binding entry in assay [2] and in assay [3] was “binds” throughout.

B1: PHD2, endogenous (protein, UniProt F4KE59 1-1311)
chain: MADRRVGKRQMGQRGFSKVESGTCNVCSAPCSSCMHRNVGFTGSKLDESSDENCHGVVGSQCSVNEDDLLPSSMVNAHKSLNNTASEASNLVNSSHDALSENAESKETIRCSGISDDSGAAAMTSKPSLSGSRMKHKVSASANMLDQSSNCIEDQEDGILSADRAKQLKSGCSNNEIGNKDLADGSALNSDPIPGGSRKDEVKLESLQNPSSNHDDRVSSEKGNFKEKSRPGGNKERQEPSVEGSTRSGENRKDGKSSKSSSSNSSAVSESESDDSEMVEHDVKVCDICGDAGREDLLAICSGCSDGAEHTYCMREMLDEVPEGDWLCEECAEEAEKQKQEAKRKRETEVTFNTYSSGKRHADKIEAAPDAKRQVVEASTGSPKKSILPRVGALSRETSFKGLDRLRGKLNHQTSFSDDTESARSAGSQLQPPKGAFLKSSSFNCSSSKPKVQLMDDAIHPRQKTGKEDTALDLKVGGFRNVGKSMPSRTTDAGNSGGSDSQAKMLGSKVYHSQEGKSLKQVKDRNREANASASSIDQKLKSRGNSSVSHANNNRDLKGLQSDGKRGNLTKQVSNLSRNRLENSVVSGGDISTNEKCSASEQSSSQADCKDELPSTSCTGEGMPNHGTVALQDGLPRSRVPREVGKKSKEAFSKRQRSSLLAGAKGLPSSQKGGQTAESSDTSGVSDSDLSTTKNVKEDLNKGNRLRAAVDAALRKKPSFGKNRVLEQSDASLVANVDSSSEKTLRNQLPSKMHKNHVSHEGLQGGHPILWPTSDPYKQTIVTNEKQLIFPGADTIPSRLVEPEVSFPAVKPVMRDLPLVPSPVMLRSSAIPDHEFIWQGDLEVRKIINQSAMHSGIQAHLSTLASPRVAEVVNKFPETFSLNEVPRKSTWPTQFEKLGTKEAHIALFFFAKDTESYERNYKPLVDNMIKNDLALKGNLDNVDLLIFASNQLPSNCQRWNMLYFLWGVFQGRKETNPQKNTSLPTSNVLPRDRDPKELCQTSSPSKHLEKGSSLRESSSNGIETRNGTDARSHENPNNRESSIERSPSKKEDIALKVEEAGVNHIPPQVTGSNSGDSLVRKVQKVEEQELGGRKDLPLTVMGSGIQSHGQDNPLEKDLNSSQASHRKRPLWELSNPANENSSAINQKVELNNDGLCEGSPNKKLKTENGSSSLCRDTSGHDSGIMKKSPKVVFPLDLNDDSEMVDNLSPLGNDENNNNRRLISGTVPNLELALGAEETTEATMGLLPFLSRSSNSGEQSNNSMNKEKQKADEEEEDDAEVAASLSLSLSFPGTEERKNVNTPLFLFRDLPR
On to B1, for which the binding entry is on record as “no binding” in assay [1], “no binding” in assay [4], “binds” in assay [2] and “no binding” in assay [3].

B2: PHD3, endogenous (protein, UniProt F4IYH6 1-994)
chain: MADRRVGNRPMGRRGRLEIQSGTCNVCSAPCSSCMHHNAEFSGSKSDESSDENSHGVLASQCSFNGDNLLRSSGVNAPGSSHNTSSEASHLVNSNHDTSSENAESKEIIRSSDISHGPLLDRPHKDQDSMKVDSCNDHQARSTLGQGKVKEKSGAKNNEEKKNTLTGSSKHSGPRVGKSGENVLLNKADESNTSAMSDSESENDPEMLELDVKVCDTCGDAGREDLLAICSRCSDGAEHTYCMRVMLKKVPKGYWLCEECKFAEKAEKHKLETKRKRESEVNVNTQISSKRHIDKFEAVPDSKRLAVGAQIGSPKRSVLPRMSTLSRETSFKGLEKPTRKLAHYSSFNSHSSDDTESTRSTDSQLQSPKGSFLKSNSFNSLSSRSKVRPVDDDMLPRQKTGNENSSLEVKEGFSKNVGKSMSSRCIDVGSSNCNDSKVKGSKQLKDWSTEANPSASISRGNSSIPYAKSPRDLKDLQSDGKQGSLSKQARHLSRNRLEDIVASVGDSSKNEKCSSSEQISSEAKCKDELAQVDGVPRSREFREAGEKTKDAVGNHQKRNIGEDNNKGNRLRAAVDAALRKKPSFSKNRGLEQSDLPPVSNVDSGCNKALKCLSSKVPVIRDWPVGFQGLPGGHPNLRTDKQTNTVNEKQFTLAGTDATTASQSVEPEVNDPSVQSVMRDLPVAAPNVLSTTSAIPKPEYIWQGDLEVQKSRNLSAMHSGIQAYLSTLASPKVVEVVKQFPEKVTLNEVPRLSSWPAQFQDTGAKEQHVALFFFAKDIESYEKNYKPLVDNMIQKDLALKGNLEGVELLIFASNQLPQDCQRWNMLFFLWGVFRGKKESCSNPPKNTPLPASCVSPNRDTFRHENPSNKKSLTDRTLSRMQSCMKEEDAKEGKACSGTEKENAFSVSYGEGEVDVETEEGEIGVSPQLKYEKTAGPGTVKSADMNQRVNVDDLNKEGLCEGPANKKLKTVTGVETGCSIVRRDTSVHKFASRKFV
Turning to B2, the binding result in assay [1] is “no binding”; in assay [4], “no binding”; in assay [2], “binds”; in assay [3] it was “no binding”.

B3: CPL2, endogenous (protein, UniProt Q5YDB5 1-770)
chain: MNRLGHKSVVYHGDLRLGELDVNHVSSSHEFRFPNDEIRIHHLSPAGERCPPLAILQTIASFAVRCKLESSAPVKSQELMHLHAVCFHELKTAVVMLGDEEIHLVAMPSKEKKFPCFWCFSVPSGLYDSCLRMLNTRCLSIVFDLDETLIVANTMKSFEDRIEALKSWISREMDPVRINGMSAELKRYMDDRMLLKQYIDNDYAFDNGVLLKAQPEEVRPTSDGQEKVCRPVIRLPEKNTVLTRIKPEIRDTSVLVKLRPAWEELRSYLTAKTRKRFEVYVCTMAERDYALEMWRLLDPEAHLISLKELRDRIVCVKPDAKKSLLSVFNGGICHPKMAMVIDDRMKVWEDKDQPRVHVVSAYLPYYAPQAETALVVPHLCVARNVACNVRGYFFKEFDESLMSSISLVYYEDDVENLPPSPDVSNYVVIEDPGFASNGNINAPPINEGMCGGEVERRLNQAAAADHSTLPATSNAEQKPETPKPQIAVIPNNASTATAAALLPSHKPSLLGAPRRDGFTFSDGGRPLMMRPGVDIRNQNFNQPPILAKIPMQPPSSSMHSPGGWLVDDENRPSFPGRPSGLYPSQFPHGTPGSAPVGPFAHPSHLRSEEVAMDDDLKRQNPSRQTTEGGISQNHLVSNGREHHTDGGKSNGGQSHLFVSALQEIGRRCGSKVEFRTVISTNKELQFSVEVLFTGEKIGIGMAKTKKDAHQQAAENALRSLAEKYVAHVAPLARETEKGPENDNGFLWESSEDVSNKGLEEEAPKENISEL
B3: the binding entry is on record as “no binding” in assay [1], “no binding” in assay [4], “binds” in assay [2] and “no binding” in assay [3].

These data come from publication PMC10338684.
